Measured values reported in PubChem BioAssay AID256 (DTP/NCI, 2004).
The list is a part of this screen's results and no random one: it is rich in T/C values a quarter to a half above the control, in often repeated tests (any T/C) and in doses without a T/C. Further doses and runs are listed elsewhere. T/C is the treated group as % of the vehicle group. Some entries give survivors of the animals treated and no T/C: the source holds a T/C of zero for them, seemingly a mark for toxic or unscored doses. Some survivor counts are full or nearly so, which does not show that the dose was tolerated: survival well below the control is almost never listed, so the zero probably covers shortened survival too. Counts of survivors are from the toxicity check (mostly the fifth day) where no day follows; animals may have died later. Schedules are NCI's codes, taken here to give the interval after Q, in days (D) or hours (H), and the number of doses after X. For survival time, this PubChem deposit counts one and a half times the control or more as active, and values a quarter to a half above the control carry no call in these data; other NCI protocols may use other cut-offs. Signs of the kind (2×) count equal records among those shown. Some T/C values are followed by the survivors on the day toxicity was checked, most often the fifth; where none is given, no animal had died by that day. Some doses were run more than once; the values are given in rising order.

System: CD2F1 mice, L1210 leukemia ip, survival T/C
Test: NCI In Vivo Anticancer Drug Screen. Data for tumor model L1210 Leukemia (intraperitoneal) in CD2F1 (CDF1) mice
Settings: higher T/C = longer survival
Procedure, shortened: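 Each value reflects a quotient of treated over vehicle control outcomes in mice with a transplanted tumor.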

[1] = T/C endpoint: median survival time, dose: 400.0 mg/kg/injection, schedule: Q01DX001 (ip), vehicle: water
[2] = T/C endpoint: mean survival time, dose: 100.0 mg/kg/injection, schedule: Q01DX009 (ip), vehicle: saline with Tween-80
[3] = T/C endpoint: mean survival time, dose: 80.0 mg/kg/injection, schedule: Q01DX001 (ip), vehicle: saline
[4] = T/C endpoint: mean survival time, dose: 150.0 mg/kg/injection, schedule: Q01DX001 (ip), vehicle: saline
[5] = T/C endpoint: mean survival time, dose: 300.0 mg/kg/injection, schedule: Q01DX001 (ip), vehicle: saline
[6] = T/C endpoint: mean survival time, dose: 400.0 mg/kg/injection, schedule: Q04DX003 (ip), vehicle: saline with Tween-80

In the case of `O=NN(CCCl)C(=O)/N=N/C(=O)N(CCCl)N=O`, the T/C (T/C endpoint: median survival time, dose: 200.0 mg/kg/injection, schedule: Q01DX001 (ip), vehicle: water) is reported as 126 and 131 % of control [5 of 6 alive], the T/C [1] is reported as 144 % of control [4 of 6 alive] and the survivor count [1] is reported as 1 of 6.

For `COc1cc2c(c(OC)c1OC)-c1ccc(SC)c(=O)cc1[C@@H](NC(=O)CCl)CC2`, the survivor count (T/C endpoint: mean survival time, dose: 1.6 mg/kg/injection, schedule: Q01DX009 (ip), vehicle: water) was 2 of 6 and the survivor count (T/C endpoint: mean survival time, dose: 3.2 mg/kg/injection, schedule: Q01DX009 (ip), vehicle: water) was 0 of 6.

`ClCCN(Cc1ccccc1)Cc1ccccc1` was tested, and the survivor count (T/C endpoint: mean survival time, dose: 50.0 mg/kg/injection, schedule: Q01DX009 (ip), vehicle: saline with Tween-80) was 0 of 6, the survivor count [2] was 1 of 6 and the survivor count (T/C endpoint: mean survival time, dose: 200.0 mg/kg/injection, schedule: Q01DX009 (ip), vehicle: saline with Tween-80) was 0 of 6.

`CCN(CC)c1cccc(OC(=O)NC)c1` was tested, and the survivor count (T/C endpoint: mean survival time, dose: 40.0 mg/kg/injection, schedule: Q01DX001 (ip), vehicle: saline) was 0 of 6, the survivor count (T/C endpoint: mean survival time, dose: 75.0 mg/kg/injection, schedule: Q01DX001 (ip), vehicle: saline) was 1 of 6 and the survivor count [3] was 0 of 6. For the same molecule, the survivor count [4] was 0 of 6 and the survivor count [5] was 0 of 6.

In the case of `CC([NH-])CC[NH-].[Br][Pt+2][Br]` (stereo unspecified), the T/C (T/C endpoint: mean survival time, dose: 6.25 mg/kg/injection, schedule: Q04DX003 (ip), vehicle: saline with Tween-80) is reported as 130 % of control, the T/C (T/C endpoint: mean survival time, dose: 12.5 mg/kg/injection, schedule: Q04DX003 (ip), vehicle: saline with Tween-80) is reported as 125 % of control and the T/C (T/C endpoint: mean survival time, dose: 25.0 mg/kg/injection, schedule: Q04DX003 (ip), vehicle: saline with Tween-80) is reported as 146 % of control.

For `CCCCCCCCCCCCC[n+]1ccc(C#N)cc1`, the survivor count (T/C endpoint: mean survival time, dose: 30.0 mg/kg/injection, schedule: Q01DX009 (ip), vehicle: saline) was 2 of 6.

`c1ccc2c[n+]3cc4ccccc4cc3cc2c1` was tested, and the survivor count (T/C endpoint: mean survival time, dose: 50.0 mg/kg/injection, schedule: Q04DX003 (ip), vehicle: saline) was 4 of 6.

For `[Cl][Pt+2][Cl].[NH-]c1ccccc1F.[NH-]c1ccccc1F`, the survivor count (T/C endpoint: mean survival time, dose: 250.0 mg/kg/injection, schedule: Q04DX003 (ip), vehicle: saline with Tween-80) was 3 of 3.

For `[CH3][Sb]([CH3])([CH3])([O]C(=O)CF)[O]C(=O)CF`, the survivor count (T/C endpoint: mean survival time, dose: 100.0 mg/kg/injection, schedule: Q04DX003 (ip), vehicle: saline with Tween-80) was 0 of 6, the survivor count (T/C endpoint: mean survival time, dose: 200.0 mg/kg/injection, schedule: Q04DX003 (ip), vehicle: saline with Tween-80) was 0 of 6 and the survivor count [6] was 0 of 6.

`CC(C)(C)NC[Si](C)(C)C` was tested, and the survivor count (T/C endpoint: mean survival time, dose: 100.0 mg/kg/injection, schedule: Q01DX009 (ip), vehicle: saline) was 3 of 6.

`COc1cc([C@@H]2c3cc4c(cc3C[C@H]3COC(=O)[C@@H]32)OCO4)cc(OC)c1OC` was tested, and the survivor count (T/C endpoint: mean survival time, dose: 50.0 mg/kg/injection, schedule: Q01DX015 (ip), vehicle: saline) was 0 of 6.

`CCCCCC/C(C)=C(\C)c1cc(OC)cc(OC)c1` was tested, and the survivor count [6] was 4 of 6.

With `N=S(=O)(c1ccccc1)c1ccccc1` the survivor count (T/C endpoint: mean survival time, dose: 400.0 mg/kg/injection, schedule: Q04DX002 (ip), vehicle: saline with Tween-80) was 1 of 3.

In the case of `N#C[Se]CC[Se]C#N`, the survivor count (T/C endpoint: mean survival time, dose: 100.0 mg/kg/injection, schedule: Q01DX001 (ip), vehicle: saline with Tween-80) is reported as 0 of 6, the survivor count (T/C endpoint: mean survival time, dose: 200.0 mg/kg/injection, schedule: Q01DX001 (ip), vehicle: saline with Tween-80) is reported as 0 of 6 and the survivor count (T/C endpoint: mean survival time, dose: 400.0 mg/kg/injection, schedule: Q01DX001 (ip), vehicle: saline with Tween-80) is reported as 0 of 6.

`CC(=O)Oc1cccc2c1C(=O)c1c(OC(C)=O)cccc1C2=O` was tested, and the survivor count (T/C endpoint: mean survival time, dose: 400.0 mg/kg/injection, schedule: Q01DX009 (ip), vehicle: water) was 6 of 6.

In the case of `CCCCCCCCCCCCCCCC(=O)NCC[N+](C)(CC)CC`, the survivor count [4] is reported as 0 of 6 and the survivor count [5] is reported as 0 of 6.

`C1CCC(C2CCCC[N-]2)[N-]C1.CC(C)C([NH-])C(=O)O.[Cl][Pt]` (stereo unspecified) was tested, and the survivor count (T/C endpoint: median survival time, dose: 320.0 mg/kg/injection, schedule: Q04DX003 (ip), vehicle: saline) was 1 of 5.

For `CCOC(=O)NC(C)(C)CN(C(=O)OCC)C(C)(C)CO`, the survivor count (T/C endpoint: mean survival time, dose: 200.0 mg/kg/injection, schedule: Q01DX009 (ip), vehicle: saline) was 6 of 6.

For `O=[N+]([O-])c1ccc(/C=N\N=C\c2ccco2)cc1`, the survivor count [2] was 6 of 6 and the survivor count (T/C endpoint: mean survival time, dose: 400.0 mg/kg/injection, schedule: Q01DX009 (ip), vehicle: saline with Tween-80) was 6 of 6.

`C=C(CC(=O)O)C(=O)O` (tested in a mixture with another compound) was tested, and the survivor count [6] was 0 of 6.

For `CC[C@@]1(OC(=O)C(N)CCC(=O)O)C(=O)OCc2c1cc1n(c2=O)Cc2cc3ccccc3nc2-1` (stereo partly specified), the T/C (T/C endpoint: median survival time, dose: 13.69 mg/kg/injection, schedule: Q04DX002 (ip), vehicle: water) was 125 % of control, the T/C (T/C endpoint: median survival time, dose: 20.54 mg/kg/injection, schedule: Q04HX004 (iv), vehicle: water) was 144 % of control (2×) and the T/C (T/C endpoint: median survival time, dose: 27.39 mg/kg/injection, schedule: Q04DX002 (ip), vehicle: water) was 125 % of control.

`CC(C)(C)N.[O]=[Cr](=[O])([OH])[OH]` was tested, and the survivor count [3] was 2 of 6.

For `O=P(c1ccccc1)(c1ccccc1)c1ccccc1`, the survivor count [6] was 5 of 6.

For `CC(C)=C(CO)CCC(C)C`, the survivor count [6] was 0 of 6.

With `C=CC(=C)CCC=C(C)C` the survivor count (T/C endpoint: mean survival time, dose: 400.0 mg/kg/injection, schedule: Q01DX009 (ip), vehicle: acetone) was 2 of 6.

In the case of `COc1cc(Br)c(CC2c3cc(OC)c(OC)cc3CCN2C)cc1OC` (stereo unspecified), the survivor count (T/C endpoint: mean survival time, dose: 400.0 mg/kg/injection, schedule: Q01DX001 (ip), vehicle: saline) is reported as 1 of 6.

In the case of `CCCCC(CCCC)CS(=O)[O-].[C-]#[O+].[C-]#[O+].[Fe+6].[c-]1[c-][c-][cH-][c-]1`, the survivor count (T/C endpoint: mean survival time, dose: 100.0 mg/kg/injection, schedule: Q04DX002 (ip), vehicle: saline) is reported as 1 of 3, the survivor count (T/C endpoint: mean survival time, dose: 200.0 mg/kg/injection, schedule: Q04DX002 (ip), vehicle: saline) is reported as 0 of 3 and the survivor count (T/C endpoint: mean survival time, dose: 400.0 mg/kg/injection, schedule: Q04DX002 (ip), vehicle: saline) is reported as 0 of 3.

With `c1cc2n(n1)CCN2` the survivor count (T/C endpoint: mean survival time, dose: 50.0 mg/kg/injection, schedule: Q01DX009 (ip), vehicle: saline) was 6 of 6, the survivor count (T/C endpoint: mean survival time, dose: 128.0 mg/kg/injection, schedule: Q03HX008 (ip), vehicle: saline) was 1 of 10 and the survivor count (T/C endpoint: mean survival time, dose: 128.0 mg/kg/injection, schedule: Q03HX016 (ip), vehicle: saline) was 2 of 10. The survivor count (T/C endpoint: mean survival time, dose: 128.0 mg/kg/injection, schedule: Q03HX024 (ip), vehicle: saline) was 0 of 10, the T/C (T/C endpoint: mean survival time, dose: 256.0 mg/kg/injection, schedule: Q04DX003 (ip), vehicle: saline) was 126 % of control and the survivor count (T/C endpoint: mean survival time, dose: 400.0 mg/kg/injection, schedule: Q01DX009 (ip), vehicle: saline) was 2 of 6. The T/C (T/C endpoint: mean survival time, dose: 400.0 mg/kg/injection, schedule: Q04DX003 (ip), vehicle: water) was 147 % of control [5 of 6 alive], the T/C (T/C endpoint: mean survival time, dose: 400.0 mg/kg/injection, schedule: Q04DX003 (iv), vehicle: saline) was 131 % of control and the T/C (T/C endpoint: mean survival time, dose: 512.0 mg/kg/injection, schedule: Q01DX001 (ip), vehicle: saline) was 133 % of control. For the same molecule, the survivor count (T/C endpoint: mean survival time, dose: 512.0 mg/kg/injection, schedule: Q01DX005 (ip), vehicle: saline) was 1 of 10, the survivor count (T/C endpoint: mean survival time, dose: 512.0 mg/kg/injection, schedule: Q01DX009 (ip), vehicle: saline) was 1 of 10 and the T/C (T/C endpoint: mean survival time, dose: 600.0 mg/kg/injection, schedule: Q04DX003 (ip), vehicle: water) was 131 % of control [5 of 6 alive]. For the same molecule, the T/C (T/C endpoint: mean survival time, dose: 1024.0 mg/kg/injection, schedule: Q01DX001 (ip), vehicle: saline) was 146 % of control [7 of 10 alive], the survivor count (T/C endpoint: mean survival time, dose: 1024.0 mg/kg/injection, schedule: Q04DX003 (ip), vehicle: saline) was 7 of 10 and the survivor count (T/C endpoint: mean survival time, dose: 1024.0 mg/kg/injection, schedule: Q08DX002 (ip), vehicle: saline) was 6 of 10.

With `CCC[CH2][Sn]1([CH2]CCC)[O]C2C(CO)OC(n3c(Br)c(C#N)c4c(N)ncnc43)C2[O]1` (stereo unspecified) the survivor count (T/C endpoint: mean survival time, dose: 6.25 mg/kg/injection, schedule: Q01DX005 (ip), vehicle: distilled water + Tween-80) was 2 of 6, the survivor count (T/C endpoint: mean survival time, dose: 12.5 mg/kg/injection, schedule: Q01DX005 (ip), vehicle: distilled water + Tween-80) was 1 of 6 and the survivor count (T/C endpoint: mean survival time, dose: 25.0 mg/kg/injection, schedule: Q01DX005 (ip), vehicle: distilled water + Tween-80) was 0 of 6.
